Laboratory results taken from patent US12187672B2, “1,2-diacylglycerol compound, preparation method therefor, and immunomodulator containing same as active ingredient” (ENZYCHEM LIFESCIENCES CORPORATION, priority 2018, dated 2025).
Some entries share one result that the patent states for a list of compounds.

System: IL-4
Assay: PKC activator-induced IL-4 secretion reduction in EL-4 cells (ELISA)
Assay type: cell-based, mouse
Conditions: PKC activator-treated, 100 μg/ml
Description: In DMEM (Dulbecco Modified Eagle Medium, Hyclone, Thermo Scientific) medium to which 10% Fetal Bovine Serum was added, EL-4 cells, a mouse lymphoma family, were subcultured at a concentration of 1×10^5 cells/ml, and culture was conducted in a 5% CO2 humidified incubator at 37° C. The cultured EL-4 cells were inoculated into a 48 well plate by 5×10^4 cells/ml and stabilized for 30 hours. Then, the culture solution was treated with a glycerol derivative compounds of the type shown in Table 11 and 12 below for 2 hours. Thereafter, it were treated with 0.5 μg/ml of PKC activator (p10, some kind of PMA) of a cell stimulator, and subsequent further incubation were conducted for 18 hours. Thereafter 0.5 ml of the culture supernatant was collected for each well and centrifuged (at 3000 rpm, 5 minutes) to recover the supernatant. The IL-4 level in the recovered supernatant was measured according to the manual provided by the Mouse IL-4 ELISA set (BD Biosciences). […] Thereafter, the secondary HRP conjugated antibody was reacted at room temperature for 30 minutes, washed three times with buffer solution, and treated with 50 μl of stop solution for each well, and then the optical density was measured at 450 nm with an ELISA microplate leader. The results of the measured expression reduction rate ([…]) were shown in Table 11, Table 12, FIG. 11 and FIG. 12 below.

Structure (SMILES)	decrease of IL-4 secretion/expression
CCCCC/C=C\C/C=C\CCCCCCCC(=O)OC(COC(=O)CCCCCCCCCCCCCCC)COC(=O)C(C)CC (centres unmarked) [EC_A20]	up to 80%
CCCCC/C=C\C/C=C\CCCCCCCC(=O)OC(COC(=O)CCCCCCCCCCCCCCC)COC(C)C (centres unmarked) [EC_A21]	up to 80%
